Measured data: PubChem BioAssay AID504786 (Drosophila RNAi Screening Center, 2011)
Screen: 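Fly genes required for HIF-dependent transcription when hypoxia is mimicked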 (primary screen). Cell system: Drosophila S2 cells with a stable HIF luciferase reporter. Reagents: long dsRNA against Drosophila genes, about 0.2 µg dsRNA per well of a 384-well plate. Duration: three days of knock-down, then 20 h of DFO before reading. Challenge: desferrioxamine (DFO) at 100 µM, an iron chelator that mimics hypoxia, for 20 h. Detection: 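Firefly luciferase driven by the mouse ldh-a hypoxia-response element, measured after 20 h of 100 µM DFO; z-scores per plate, higher means more signal lost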. Reading the numbers: z-score: higher = stronger loss of HIF reporter signal.
The deposit covers about 21,000 reagents; this is an unselected part of those with a known target gene and a result. 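Primary screen; positive scores mean lost reporter signal, so the sign may be inverted from the usual convention.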 Reagents against one gene are numbered here. A plus sign joins genes that one reagent is predicted to hit. Further read-outs or replicates are left out here.

no.	target gene	reagent no.	z-score, replicate 1	z-score, replicate 2
1	CG31538	1	-0.3	-0.4
2	bnk	1	-0.3	-0.3
3	hpRNA:CR18854 + IP3K1	1	-0.2	-0.6
4	RabX1	1	-0.3	-0.4
5	mute	1	2.1	1.3
6	Prx3	1	-0.3	-0.3
7	prg	1	0	-0.7
8	eEF5	1	4.8	4.5
9	Atg3	1	-0.3	-0.4
10	mtTFB1 + Ccdc56	1	-0.3	-0.4
11	CG7484	1	0.2	0.6
12	Hers	1	-0.3	-0.2
13	Hers	2	0.1	0.2
14	CG32237	1	-0.4	-0.7
15	CG32237	2	-0.4	-0.7
16	gzl	1	-0.4	-0.5
17	SC35	1	5.7	2.1
18	SC35	2	-0.3	0.7
19	Akh	1	-0.3	-0.1
20	Prm	1	-0.3	-0.1
21	Prm	2	-0.4	-0.6
22	Prm	3	-0.4	-0.3
23	PDCD-5	1	-0.4	-0.5
24	Vps52	1	-0.4	-0.4
25	Eig71Eb	1	-0.3	-0.4
26	CG42523	1	0.1	0
27	CG7800	1	-0.4	0.6
28	CG42662 + CG30080	1	0.1	0
29	ppk18	1	-0.3	-0.2
30	Skp2	1	-0.1	1
31	CG15202	1	-0.3	-0.5
32	Cyp28a5	1	-0.2	-0.3
33	Eps-15	1	-0.3	0.8
34	nemy	1	-0.1	-0.3
35	nemy	2	-0.2	0.3
36	slv	1	-0.3	-0.4
37	CG10026	1	-0.3	0
38	ClpX	1	-0.1	0
39	Ccp84Ae	1	-0.2	0
40	CG16710	1	0.1	0.4
41	CG15553	1	-0.2	-0.1
42	CR9337	1	-0.3	-0.6
43	CG8172	1	-0.2	0
44	CG33981 + fab1	1	-0.3	-0.5
45	Cyp6a8	1	-0.3	-0.3
46	CG9917	1	-0.2	-0.4
47	ac	1	0.1	0.5
48	vn	1	0.2	-0.8
49	CG15375	1	-0.3	-0.6
50	CG42588	1	-0.3	-0.2
51	Cyp12a5	1	-1.1	0.4
52	rau	1	-0.2	-0.5
53	betaTub85D	1	-0.1	0.9
54	smash	1	-0.2	0
55	smash	2	-0.3	0
56	Sam-S	1	1	2
57	CG2225	1	-0.2	-0.1
58	CG2225	2	-0.2	0.1
59	Cdc7	1	-0.3	-0.1
60	Cdc7	2	-0.3	0.2
61	Sap130	1	-0.4	-0.3
62	CG32021 (retired record)	1	0.4	-0.2
63	tll	1	-0.3	-0.8
64	dpr13	1	-0.4	0.3
65	dpr13	2	-0.3	0.3
66	RpL27A	1	6.1	6.5
67	CG13295	1	-0.2	0
68	Eig71Ej	1	-0.1	-0.6
69	stil	1	-0.3	-0.7
70	sfl	1	0.5	1.5
71	sfl	2	-0.1	1.1
72	Pbp45	1	-0.4	-0.4
73	tipE	1	-0.4	-0.5
74	Arl6IP1	1	-0.4	0.3
75	Tango6	1	-0.3	-0.2
76	CG12464	1	-0.2	0.1
77	clos	1	-0.3	-0.3
78	clos	2	-0.3	-0.4
79	clos	3	-0.3	0
80	pk	1	-0.3	-0.5
81	pk	2	-0.2	0
82	hh	1	-0.4	-0.3
83	Nmd3	1	-0.4	0.4

Reformatted: results already given.
target gene	reagent no.	z-score, replicate 1	z-score, replicate 2
prg	1	0	-0.7
eEF5	1	4.8	4.5
Atg3	1	-0.3	-0.4
mtTFB1 + Ccdc56	1	-0.3	-0.4
